Test results published in patent publication US20180073031A1, “TRANSCRIPTIONAL SENSOR FOR BILE ACIDS IN BACTEROIDES THETAIOTAOMICRON” (priority 2016, published 2018).
At least one structure is not confirmed: it was looked up by name or label, or the drawing left a doubt.

Assays:
[1] = system: bile acid controlled NOT gate; assay: Bile acid controlled NOT gate (bile acid sensor driving BM3R1 repressor, Nanoluc output); type: cell-based, Bacteroides; conditions: FIG. 10B
[2] = system: bile acid sensor BreR from V. cholerae; type: cell-based; conditions: for sensor sensitive to substance (FIG. 4 legend): in vitro functionality; for induction of reporter luminescence by bile acid: strain grown with various concentrations of bile acids, FIGS. 4B-4G
[3] = system: VFA0359 from Vibrio fischeri; assay: Luciferase assay of bile acid sensor using VFA0359 in B. thetaiotaomicron; type: cell-based; conditions: FIG. 8B
KstR = biological target: T1, KstR (Mycobacterium tuberculosis, UniProt P96856); type: cell-based
T1 construct: expressed in transfected cells; host or cells: Bacteroides thetaiotaomicron
T1 sequence (P96856 1-220): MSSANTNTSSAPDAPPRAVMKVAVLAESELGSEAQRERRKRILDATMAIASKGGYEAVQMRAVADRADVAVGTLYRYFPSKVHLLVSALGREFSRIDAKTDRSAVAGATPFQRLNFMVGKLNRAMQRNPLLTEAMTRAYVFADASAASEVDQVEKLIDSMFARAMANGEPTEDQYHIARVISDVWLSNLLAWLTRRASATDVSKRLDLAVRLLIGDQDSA

CmeR = type: cell-based, Campylobacter jejuni; conditions: in B. thetaiotaomicron

Row | SMILES | luminescence with increasing concentration (NOT gate) [1] | sensor sensitive to substance (FIG. 4 legend) [2] | induction of reporter luminescence by bile acid [2] | luminescence with increasing concentrations in the media [3] | responsiveness of KstR construct (KstR) | responsiveness of CmeR construct (CmeR) | relative sensitivity of the sensor among deconjugated bile acids [2]
1 | C[C@H](CCC(=O)O)[C@H]1CC[C@H]2[C@@H]3CC[C@@H]4C[C@H](O)CC[C@]4(C)[C@H]3C[C@H](O)[C@]12C [DCA, deoxycholic acid] | decreasing luminescence | sensitive | induced luminescence in a dose dependent manner | increasing luminescence | not responsive | not responsive | 
2 | C[C@H](CCC(=O)O)[C@H]1CC[C@H]2[C@@H]3CC[C@@H]4C[C@H](O)CC[C@]4(C)[C@H]3CC[C@]12C [LCA, lithocholic acid] |  | sensitive | induced luminescence in a dose dependent manner |  |  |  | moderately sensitive
